Results taken from US8735364B2, “Antisense modulation of apolipoprotein B expression” (Genzyme Corporation, priority 2001, dated 2014).
Some entries share one result that the patent states for a list of compounds. Oligonucleotides are written 5' to 3', each unit as a sugar letter and its base; * is a phosphorothioate linkage, no mark a phosphodiester; rarer units and linkages stand in square brackets, end groups in braces. Plain capitals give the bases only. e = 2'-O-(2-methoxyethyl) (MOE); [5mC] = 5-methylcytosine; d = 2'-deoxy (DNA)

Tested on: mouse apolipoprotein B mRNA
Assay: Inhibition of mouse apolipoprotein B mRNA levels in primary hepatocytes, quantitative real-time PCR
Format: cell-based
Set-up: concentration or dose not given beside the values
Details: averages from two experiments
Protocol: Primary mouse hepatocytes were prepared from CD-1 mice purchased from Charles River Labs (Wilmington, Mass.) and were routinely cultured in Hepatoyte Attachment Media (Gibco) supplemented with 10% Fetal Bovine Serum (Gibco/Life Technologies, Gaithersburg, Md.), 250 nM dexamethasone (Sigma), and 10 nM bovine insulin (Sigma). Cells were seeded into 96-well plates (Falcon-Primaria #3872) at a density of 10000 cells/well for use in RT-PCR analysis.
When cells reached 80% confluency, they were treated with oligonucleotide. For cells grown in 96-well plates, wells were washed once with 200 μL OPTI-MEM™-1 reduced-serum medium (Gibco BRL) and then treated with 130 μL of OPTI-MEM™-1 containing 3.75 μg/mL LIPOFECTIN™ (Gibco BRL) and the desired concentration of oligonucleotide. After 4-7 hours of treatment, the medium was replaced with fresh medium. Cells were harvested 16-24 hours after oligonucleotide treatment.
Quantitation of apolipoprotein B mRNA levels was determined by real-time quantitative PCR using the ABI PRISM™ 7700 Sequence Detection System (PE-Applied Biosystems, Foster City, Calif.) according to manufacturer's instructions. This is a closed-tube, non-gel-based, fluorescence detection system which allows high-throughput quantitation of polymerase chain reaction (PCR) products in real-time. As opposed to standard PCR, in which amplification products are quantitated after the PCR is completed, products in real-time quantitative PCR are quantitated as they accumulate. This is accomplished by including in the PCR reaction an oligonucleotide probe that anneals specifically between the forward and reverse PCR primers, and contains two fluorescent dyes. A reporter dye (e.g., JOE, FAM, or VIC, obtained from either Operon Technologies Inc., Alameda, Calif. or PE-Applied Biosystems, Foster City, Calif.) is attached to the 5′ end of the probe and a quencher dye (e.g., TAMRA, obtained from either Operon Technologies Inc., Alameda, Calif. or PE-Applied Biosystems, Foster City, Calif.) is attached to the 3′ end of the probe. When the probe and dyes are intact, reporter dye emission is quenched by the proximity of the 3′ quencher dye. During amplification, annealing of the probe to the target sequence creates a substrate that can be cleaved by the 5′-exonuclease activity of Taq polymerase. […] With each cycle, additional reporter dye molecules are cleaved from their respective probes, and the fluorescence intensity is monitored at regular intervals by laser optics built into the ABI PRISM™ 7700 Sequence Detection System. In each assay, a series of parallel reactions containing serial dilutions of mRNA from untreated control samples generates a standard curve that is used to quantitate the percent inhibition after antisense oligonucleotide treatment of test samples.
PCR reagents were obtained from PE-Applied Biosystems, Foster City, Calif. RT-PCR reactions were carried out by adding 25 μL PCR cocktail (1× TAQMAN™ buffer A, 5.5 mM MgCl2, 300 μM each of DATP, dCTP and dGTP, 600 μM of dUTP, 100 nM each of forward primer, reverse primer, and probe, 20 Units RNAse inhibitor, 1.25 Units AMPLITAQ GOLD™, and 12.5 Units MuLV reverse transcriptase) to 96 well plates containing 25 μL total RNA solution. The RT reaction was carried out by incubation for 30 minutes at 48° C. Following a 10 minute incubation at 95° C. to activate the AMPLITAQ GOLD™, 40 cycles of a two-step PCR protocol were carried out: 95° C. for 15 seconds (denaturation) followed by 60° C. for 1.5 minutes (annealing/extension).
Gene target quantities obtained by real time RT-PCR are normalized using either the expression level of GAPDH, a gene whose expression is constant, or by quantifying total RNA using RiboGreen™ (Molecular Probes, Inc. Eugene, Oreg.). GAPDH expression is quantified by real time RT-PCR, by being run simultaneously with the target, multiplexing, or separately. Total RNA is quantified using RiboGreen™ RNA quantification reagent from Molecular Probes. […]

Sequence | %INHIB of mouse apolipoprotein B mRNA levels
CATGCCTGGAAGCCAGTGTC (antisense e[5mC]*eA*eT*eG*e[5mC]*d[5mC]*dT*dG*dG*dA*dA*dG*d[5mC]*d[5mC]*dA*eG*eT*eG*eT*e[5mC]) [ISIS 147769, 2′-MOE gapmer phosphorothioate oligonucleotide to mouse apolipoprotein B] | at least 50%
CTGTCATGACTGCCCTTTAC (antisense e[5mC]*eT*eG*eT*e[5mC]*dA*dT*dG*dA*d[5mC]*dT*dG*d[5mC]*d[5mC]*d[5mC]*eT*eT*eT*eA*e[5mC]) [ISIS 147775, 2′-MOE gapmer phosphorothioate oligonucleotide to mouse apolipoprotein B] | at least 50%
GAGAAATCCTTCACTAAGGG [ISIS 147491] | at least 50%
GGAGCCCACGTGCTGAGATT (antisense eG*eG*eA*eG*e[5mC]*d[5mC]*d[5mC]*dA*d[5mC]*dG*dT*dG*d[5mC]*dT*dG*eA*eG*eA*eT*eT) [ISIS 147766, 2′-MOE gapmer phosphorothioate oligonucleotide to mouse apolipoprotein B] | at least 50%
GGTAAAGTTGCCCATGGCTG (antisense eG*eG*eT*eA*eA*dA*dG*dT*dT*dG*d[5mC]*d[5mC]*d[5mC]*dA*dT*eG*eG*e[5mC]*eT*eG) [ISIS 147771, 2′-MOE gapmer phosphorothioate oligonucleotide to mouse apolipoprotein B] | at least 50%
GTCCAGCCTAGGAACACTCA (antisense eG*eT*e[5mC]*e[5mC]*eA*dG*d[5mC]*d[5mC]*dT*dA*dG*dG*dA*dA*d[5mC]*eA*e[5mC]*eT*e[5mC]*eA) [ISIS 147482, 2′-MOE gapmer phosphorothioate oligonucleotide to mouse apolipoprotein B] | at least 50%
GTCCCTGAAGATGTCAATGC (2'-MOE gapmer with phosphorothioates, pattern not given here) [ISIS 147764, 2′-MOE gapmer phosphorothioate oligonucleotide to mouse apolipoprotein B] | at least 50%
GTGTTGAATCCCTTGAAATC (antisense eG*eT*eG*eT*eT*dG*dA*dA*dT*d[5mC]*d[5mC]*d[5mC]*dT*dT*dG*eA*eA*eA*eT*e[5mC]) [ISIS 147770, 2′-MOE gapmer phosphorothioate oligonucleotide to mouse apolipoprotein B] | at least 50%
TCCAGGAATTGAGCTTGTGC (antisense eT*e[5mC]*e[5mC]*eA*eG*dG*dA*dA*dT*dT*dG*dA*dG*d[5mC]*dT*eT*eG*eT*eG*e[5mC]) [ISIS 147478, 2′-MOE gapmer phosphorothioate oligonucleotide to mouse apolipoprotein B] | at least 50%
TCTCACCCTCATGCTCCATT (antisense eT*e[5mC]*eT*e[5mC]*eA*d[5mC]*d[5mC]*d[5mC]*dT*d[5mC]*dA*dT*dG*d[5mC]*dT*e[5mC]*e[5mC]*eA*eT*eT) [ISIS 147480, 2′-MOE gapmer phosphorothioate oligonucleotide to mouse apolipoprotein B] | at least 50%
TGGCTAGTTTCAATCCCCTT (antisense eT*eG*eG*e[5mC]*eT*dA*dG*dT*dT*dT*d[5mC]*dA*dA*dT*d[5mC]*e[5mC]*e[5mC]*e[5mC]*eT*eT) [ISIS 147774, 2′-MOE gapmer phosphorothioate oligonucleotide to mouse apolipoprotein B] | at least 50%
TTCCCAGTCAGCTTTAGTGG (antisense eT*eT*e[5mC]*e[5mC]*e[5mC]*dA*dG*dT*d[5mC]*dA*dG*d[5mC]*dT*dT*dT*eA*eG*eT*eG*eG) [ISIS 147487, 2′-MOE gapmer phosphorothioate oligonucleotide to mouse apolipoprotein B] | at least 50%
